The values below come from paper PMC10911279.

One assay concerns the target T1, Vap33-V5 (Drosophila) (UniProt Q9W4N8).
T1 sequence: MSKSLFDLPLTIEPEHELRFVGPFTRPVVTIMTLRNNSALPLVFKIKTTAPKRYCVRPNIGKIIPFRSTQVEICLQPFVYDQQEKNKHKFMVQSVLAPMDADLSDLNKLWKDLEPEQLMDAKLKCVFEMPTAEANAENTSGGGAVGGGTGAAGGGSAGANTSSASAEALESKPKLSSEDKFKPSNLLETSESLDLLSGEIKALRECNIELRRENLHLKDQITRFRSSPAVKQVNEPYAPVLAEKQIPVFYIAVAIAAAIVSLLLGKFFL
Put plainly: co-IP; co-transfected S2 cells; lysates in DLB incubated with anti-V5, anti-HA or anti-Flag beads for 2 h at 4°C; western blot. (Immunoblotting shows a protein as a band on a membrane.)

The next assay has as its target RtGEF-HA (Drosophila). Described as above.

Results are given in words; binding and its absence hold for the method and conditions named. Binding seen in cells or lysates may run through a third protein. A result given as binding can be weak or reduced; the word gives no strength. Sequences can lack the tags named with a protein.

On to RtGEF-HA (Drosophila), for which the binding entry with Vap33-V5 (Drosophila) is given as “binds”.

B1: Vap33-V5 (protein, UniProt Q9W4N8 1-269)
chain: MSKSLFDLPLTIEPEHELRFVGPFTRPVVTIMTLRNNSALPLVFKIKTTAPKRYCVRPNIGKIIPFRSTQVEICLQPFVYDQQEKNKHKFMVQSVLAPMDADLSDLNKLWKDLEPEQLMDAKLKCVFEMPTAEANAENTSGGGAVGGGTGAAGGGSAGANTSSASAEALESKPKLSSEDKFKPSNLLETSESLDLLSGEIKALRECNIELRRENLHLKDQITRFRSSPAVKQVNEPYAPVLAEKQIPVFYIAVAIAAAIVSLLLGKFFL
On to B1, for which, in the assay with RtGEF-HA (Drosophila), the binding entry was “binds”.
